Twelve substances from patent US11331369B2 (Zoetis Services LLC, priority 2017, dated 2022) can be followed below.

One data set can be described thus: general procedure: solution-phase peptide synthesis; HATU/diisopropylethylamine; propylphosphonic anhydride/diisopropylethylamine for. Particulars: coupling step.
In turn, “(R)-1-(benzyloxy)-1-oxopropan-2-yl N—((R)-2-((N-(tert-butoxycarbonyl)-N-methyl-L-leucyl)oxy)-3-(4-((methoxycarbonyl)amino)phenyl)propanoyl)-N-methyl-L-leucinate” registered a step yield of 83%.

The data set is the same for the next values; noted with them: cyclisation step.
Turning to “dimethyl ((((2S,5R,8S,11R,14S,17R,20S,23R)-5,11,17,23-tetraisobutyl-4,8,10,16,20,22-hexamethyl-3,6,9,12,15,18,21,24-octaoxo-1,7,13,19-tetraoxa-4,10,16,22-tetraazacyclotetracosane-2,14-diyl)bis(methylene))bis(4,1-phenylene))dicarbamate”, the cyclisation yield stood at 77% yield.

Still in this data set, the particulars now being: late stage modification step.
As for Bis-Iodo PF1022a, the step yield amounted to 62%.

“(3S,6R,9S,12R,15S,18R,21S,24R)-6,18-bis(4-((5-cyclopropyl-1H-pyrazol-1-yl)methyl)benzyl)-3,9,15,21-tetraisobutyl-4,10,12,16,22,24-hexamethyl-1,7,13,19-tetraoxa-4,10,16,22-tetraazacyclotetracosan-2,5,8,11,14,17,20,23-octaone” registered a step yield of 22%. On the same count and under the same terms, in the case of Bis-CH2Cl PF1022a it was 98% yield; in that of “(3S,6R,9S,12R,15S,18R,21S,24R)-6,18-bis(4-((5-(difluoromethyl)-1H-pyrazol-1-yl)methyl)benzyl)-3,9,15,21-tetraisobutyl-4,10,12,16,22,24-hexamethyl-1,7,13,19-tetraoxa-4,10,16,22-tetraazacyclotetracosan-2,5,8,11,14,17,20,23-octaone”, 14%. The same measure, in the same setting: the value for “1-(4-(((2R,5S,8R,11S,14R,17S,20R,23S)-14-(4-((3,5-dicyclopropyl-1H-pyrazol-1-yl)methyl)benzyl)-5,11,17,23-tetraisobutyl-4,8, 10,16,20,22-hexamethyl-3,6,9,12,15,18,21,24-octaoxo-1,7,13,19-tetraoxa-4,10,16,22-tetraazacyclotetracosan-2-yl)methyl)benzyl)-1H-pyrazole-3,5-dicarbonitrile” was 21%. Still for that read-out and setting: the value for “(3S,6R,9S,12R,15S,18R,21S,24R)-3,9,15,21-tetraisobutyl-4,6,10,16,18,22-hexamethyl-12,24-bis[[4-(pyrazol-1-ylmethyl)phenyl]methyl]-1,7,13,19-tetraoxa-4,10,16,22-tetrazacyclotetracosane-2,5,8,11,14,17,20,23-octaone” was 14%; that for “(3S,6R,9S,12R,15S,18R,21S,24R)-6,18-bis(4-(2-(4-bromo-1H-pyrazol-1-yl)propan-2-yl)benzyl)-3,9,15,21-tetraisobutyl-4,10,12,16,22,24-hexamethyl-1,7,13,19-tetraoxa-4,10,16,22-tetraazacyclotetracosan-2,5,8,11,14,17,20,23-octaone” was 14%; that for “(3S,6R,9S,12R,15S,18R,21S,24R)-6-(4-((R)-1-(3,5-bis(trifluoromethyl)-1H-pyrazol-1-yl)ethyl)benzyl)-18-(4-((S)-1-(3,5-bis(trifluoromethyl)-1H-pyrazol-1-yl)ethyl)benzyl)-3,9,15,21-tetraisobutyl-4,10,12,16,22,24-hexamethyl-1,7,13,19-tetraoxa-4,10,16,22-tetraazacyclotetracosan-2,5,8,11,14,17,20,23-octaone” was 11%. “(3S,6R,9S,12R,15S,18R,21S,24R)-3,9,15,21-tetraisobutyl-4,6,10,16,18,22-hexamethyl-12,24-bis(4-((5-methyl-5,6-dihydropyrrolo[3,4-c]pyrazol-2(4H)-yl)methyl)benzyl)-1,7,13,19-tetraoxa-4,10,16,22-tetraazacyclotetracosan-2,5,8,11,14,17,20,23-octaone” registered a step yield of 11%.

The same data set, now with this note: late stage modification step, 2 steps from Bis-Iodo PF1022a.
Regarding Bis-CH2OH PF1022a, the step yield is on record as 91% yield for 2 steps.
